According to paper PMC1976628:
No constants are given. Whether binding was seen depends on the method and setting. Binding calls can cover weak binding; strength is not graded here.

Legend:
[1] = molecular target: T1, Cul3_(Soma), somatic isoform of Cullin-3, two-hybrid bait (Drosophila) (UniProt Q9V475); assay: two-hybrid; β-galactosidase (LacZ) filter assay; isolated prey clones transformed into yeast strain Y187 pre-transformed with the bait constructs
T1 sequence: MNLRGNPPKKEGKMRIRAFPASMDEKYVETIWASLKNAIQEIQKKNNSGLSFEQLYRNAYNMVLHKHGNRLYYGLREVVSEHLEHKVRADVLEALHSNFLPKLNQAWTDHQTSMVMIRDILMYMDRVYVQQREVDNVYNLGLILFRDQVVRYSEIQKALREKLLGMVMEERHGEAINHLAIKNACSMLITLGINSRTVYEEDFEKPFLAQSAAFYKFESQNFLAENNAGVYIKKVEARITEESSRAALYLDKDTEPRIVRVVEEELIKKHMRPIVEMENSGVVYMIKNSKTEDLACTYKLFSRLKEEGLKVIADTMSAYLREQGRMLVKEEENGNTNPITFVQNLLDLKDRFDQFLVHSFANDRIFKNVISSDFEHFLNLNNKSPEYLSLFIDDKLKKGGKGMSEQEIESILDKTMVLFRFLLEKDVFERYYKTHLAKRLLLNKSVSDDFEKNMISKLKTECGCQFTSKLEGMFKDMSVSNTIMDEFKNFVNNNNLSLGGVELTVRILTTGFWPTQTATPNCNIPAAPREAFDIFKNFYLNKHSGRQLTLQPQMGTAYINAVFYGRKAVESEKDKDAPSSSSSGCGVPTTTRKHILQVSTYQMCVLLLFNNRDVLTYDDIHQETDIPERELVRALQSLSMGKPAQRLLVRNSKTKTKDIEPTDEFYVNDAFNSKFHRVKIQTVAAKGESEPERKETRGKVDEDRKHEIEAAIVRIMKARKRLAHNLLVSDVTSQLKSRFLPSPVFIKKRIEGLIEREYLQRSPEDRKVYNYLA

[2] = molecular target: T1, Cul3_(Soma), somatic isoform of Cullin-3, two-hybrid bait (Drosophila); assay: two-hybrid; nutrient-omitted medium assay: growth on plates lacking leucine, tryptophan, histidine and adenine (−4 plates); Klhl10 shown after 14 d

“Drosophila orthologue of Spop (CG9924), two-hybrid prey” was tested, and the binding [1] was “binds” and the binding [2] was “binds”.
